Drawing on article doi:10.1101/2024.05.10.593562 (bioRxiv, 2024), this text covers binding for two substances.

By UniProt entry, the sequences of proteins in these tests, tags left out. Residues count along the entry.
UniProt Q13547: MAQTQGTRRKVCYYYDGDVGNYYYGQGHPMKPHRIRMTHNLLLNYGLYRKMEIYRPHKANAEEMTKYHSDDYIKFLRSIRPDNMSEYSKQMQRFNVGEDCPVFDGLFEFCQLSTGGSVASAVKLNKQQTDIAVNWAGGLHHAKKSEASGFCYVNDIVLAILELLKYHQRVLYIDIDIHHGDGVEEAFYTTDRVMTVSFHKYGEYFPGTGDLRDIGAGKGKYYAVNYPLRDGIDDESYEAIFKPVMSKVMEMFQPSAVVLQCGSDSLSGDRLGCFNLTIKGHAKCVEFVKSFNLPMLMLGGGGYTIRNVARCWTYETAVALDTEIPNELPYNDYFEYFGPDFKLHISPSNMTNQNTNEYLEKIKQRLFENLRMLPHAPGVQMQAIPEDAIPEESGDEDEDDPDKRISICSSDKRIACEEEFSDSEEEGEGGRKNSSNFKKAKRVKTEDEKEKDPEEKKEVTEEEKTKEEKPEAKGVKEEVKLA
UniProt P03129, residues 1-97: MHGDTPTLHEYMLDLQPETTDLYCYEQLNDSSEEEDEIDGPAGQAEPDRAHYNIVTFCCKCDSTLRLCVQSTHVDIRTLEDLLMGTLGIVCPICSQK

These are yes or no findings as the source states them, for the method shown. Some binding calls cover weakened binding; strength is not graded here. Where a sequence is shown, tags or fusion partners need not be part of it.

This assay deals with T1, GST-Rb 379-928 (UniProt P06400).
T1 sequence: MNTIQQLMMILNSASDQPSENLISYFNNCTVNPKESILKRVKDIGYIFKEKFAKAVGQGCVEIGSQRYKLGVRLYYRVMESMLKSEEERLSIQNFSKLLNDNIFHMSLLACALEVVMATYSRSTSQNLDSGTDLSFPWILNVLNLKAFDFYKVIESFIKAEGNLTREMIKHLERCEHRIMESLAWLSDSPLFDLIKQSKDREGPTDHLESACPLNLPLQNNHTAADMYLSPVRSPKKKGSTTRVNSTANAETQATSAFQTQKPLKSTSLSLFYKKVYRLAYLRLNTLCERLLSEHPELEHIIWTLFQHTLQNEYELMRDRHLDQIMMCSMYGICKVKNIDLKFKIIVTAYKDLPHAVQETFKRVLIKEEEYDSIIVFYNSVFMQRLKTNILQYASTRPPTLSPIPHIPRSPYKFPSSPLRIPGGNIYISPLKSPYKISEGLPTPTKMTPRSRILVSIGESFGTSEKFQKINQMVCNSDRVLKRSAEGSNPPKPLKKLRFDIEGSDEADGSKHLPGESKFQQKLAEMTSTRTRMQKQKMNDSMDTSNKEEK
Nature of the assay: AlphaScreen or HTRF. (In general: Alpha assays give light when donor and acceptor beads are brought close together.)

For the substance “HDAC1-FLAG (from UniProt Q13547 1-482) (enzyme)”, the binding entry is given as “binds”.

In the case of HIS-E7 1-97 (from UniProt P03129 1-97), the binding result is on record as “binds”.
